Laboratory results from patent US20020076809A1.
No constants are given. Whether binding was seen depends on the method and setting. Some results given as binding are weak or reduced against the parent protein; the word gives no strength.

By UniProt entry, the sequences of proteins in these tests, tags left out. Where a name states a change or a piece, a line headed by the entry shows the natural chain unless it says otherwise.
UniProt O88944: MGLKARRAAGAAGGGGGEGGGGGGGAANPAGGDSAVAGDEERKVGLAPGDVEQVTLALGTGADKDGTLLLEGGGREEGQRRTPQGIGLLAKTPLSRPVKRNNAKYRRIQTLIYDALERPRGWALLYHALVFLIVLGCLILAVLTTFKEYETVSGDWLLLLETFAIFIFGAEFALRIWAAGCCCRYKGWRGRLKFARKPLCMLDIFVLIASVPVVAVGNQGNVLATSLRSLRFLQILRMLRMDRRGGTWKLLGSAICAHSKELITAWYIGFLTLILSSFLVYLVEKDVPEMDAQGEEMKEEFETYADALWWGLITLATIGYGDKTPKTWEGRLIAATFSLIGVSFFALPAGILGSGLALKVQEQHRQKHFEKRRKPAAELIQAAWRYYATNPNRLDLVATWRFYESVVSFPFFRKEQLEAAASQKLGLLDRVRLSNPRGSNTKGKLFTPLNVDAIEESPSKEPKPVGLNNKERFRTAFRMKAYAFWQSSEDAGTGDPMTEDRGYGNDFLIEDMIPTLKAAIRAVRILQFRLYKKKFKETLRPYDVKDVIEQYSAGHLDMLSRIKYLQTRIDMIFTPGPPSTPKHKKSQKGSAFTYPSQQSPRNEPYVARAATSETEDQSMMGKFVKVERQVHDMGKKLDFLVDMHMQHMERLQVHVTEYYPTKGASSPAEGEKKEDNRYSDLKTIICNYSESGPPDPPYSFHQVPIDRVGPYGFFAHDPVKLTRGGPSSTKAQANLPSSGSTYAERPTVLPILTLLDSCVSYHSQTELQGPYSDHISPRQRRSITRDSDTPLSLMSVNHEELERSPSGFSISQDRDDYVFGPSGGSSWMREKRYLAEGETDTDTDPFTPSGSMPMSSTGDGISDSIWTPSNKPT
UniProt Q9NR82: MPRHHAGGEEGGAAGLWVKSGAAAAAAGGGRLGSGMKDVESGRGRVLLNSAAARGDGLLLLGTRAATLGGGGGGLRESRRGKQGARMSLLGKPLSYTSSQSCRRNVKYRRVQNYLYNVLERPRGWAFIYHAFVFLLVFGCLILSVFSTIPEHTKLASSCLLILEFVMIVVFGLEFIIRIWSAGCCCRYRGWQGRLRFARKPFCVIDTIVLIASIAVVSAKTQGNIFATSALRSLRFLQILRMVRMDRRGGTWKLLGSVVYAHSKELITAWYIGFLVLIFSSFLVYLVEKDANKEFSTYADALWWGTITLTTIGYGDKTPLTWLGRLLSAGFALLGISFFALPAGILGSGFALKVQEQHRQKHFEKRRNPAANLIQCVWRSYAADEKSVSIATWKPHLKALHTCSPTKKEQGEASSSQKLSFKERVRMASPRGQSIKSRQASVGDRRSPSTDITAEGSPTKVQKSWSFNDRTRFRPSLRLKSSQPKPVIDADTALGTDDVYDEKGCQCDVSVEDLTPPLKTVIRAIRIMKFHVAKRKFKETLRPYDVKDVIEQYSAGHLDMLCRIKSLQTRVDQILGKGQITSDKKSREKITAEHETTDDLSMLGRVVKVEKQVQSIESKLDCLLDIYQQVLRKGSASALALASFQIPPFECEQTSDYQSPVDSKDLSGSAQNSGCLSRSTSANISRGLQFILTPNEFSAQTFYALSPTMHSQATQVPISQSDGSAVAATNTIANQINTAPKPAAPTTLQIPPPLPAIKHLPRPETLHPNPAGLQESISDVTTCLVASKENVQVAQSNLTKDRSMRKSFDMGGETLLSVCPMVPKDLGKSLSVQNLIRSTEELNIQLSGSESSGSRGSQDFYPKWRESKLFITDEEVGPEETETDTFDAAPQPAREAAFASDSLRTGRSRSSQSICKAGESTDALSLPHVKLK

Molecular target: rKCNQ3 (GenBank accession number AF087454) (rat (printed only as the prefix r in rKCNQ3)) (UniProt O88944)
Experiment: inferred from two-electrode voltage clamp of Xenopus oocytes coexpressing both subunits; no direct binding assay

## human potassium channel KCNQ5 (from UniProt Q9NR82 1-932)
  binding: binds
